Laboratory results from publication PMC7668254.

Test system: DROSHA fragment D3 + DGCR8 fragment G1
Assay: EMSA
Conditions: 2 mM EDTA, 1.5 pmol RNA, 5-25 pmol D3-G1 in 10 uL, 50 mM Tris-HCl pH 7.5, 150 mM NaCl, 0.2 mg/ml BSA, 10% glycerol, 1 mM DTT, on ice 60 min, 4% native PAGE in 1x TBE at 4 C, recombinant protein

## GGAGAACUGAAUUCCAUGGGUUGUGUCAGUGUCAGACCUGUGAAAUUCAGUUCUUCAG [Short pri-mir-146a_G]
  binding result: binds more weakly

A weaker result is weaker than the reference pair of the same experiment.
